The values that follow come from the supplement of paper PMC12889115.

Some of the results follow. These are raw signals, not scaled to a control.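 First-pass screen: polymyxin B was added at a level that permeabilizes the Salmonella outer membrane while sparing the inner membrane. DMSO wells, with and without polymyxin B, defined maximum growth. Because plates differed from one another, each plate's data were ranked separately and the compounds with the lowest OD600 were carried forward as hits.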

In the experiment the test system is Salmonella enterica serovar Typhimurium SL1344. Nature of the experiment: bacterial growth OD600 after 18 h with compound and polymyxin B; higher = more bacterial growth (less inhibition). To be noted: 50 µM, Mueller-Hinton broth.

On to `O=C(NCC1Cc2cc(F)cc(-c3ccccn3)c2O1)c1cc(F)ccc1F` (stereo unspecified), for which, where the note is “polymyxin B 0.75 µg/mL”, the “bacterial growth OD600” value is 0.007. On the same count and under the same terms, the figure for `OCC1(Cc2ccc(F)cc2)CCCN(Cc2cccn2-c2ncccn2)C1` (stereo unspecified) is 0.816; for `O=C(CN1CC(c2ccccc2)CC1=O)NCCN1Cc2ccccc2OC(c2ccccc2F)C1` (stereo unspecified) it is 0.007; for `COCCN1CCN(C(=O)CC2(c3cccc(C(F)(F)F)c3)CC(=O)N(C3CC3)C2=O)CC1` (stereo unspecified) it is 0.851. As for `O=C(NCCc1cn2ccccc2n1)c1coc(CN2CCc3ccccc3C2)n1`, the “bacterial growth OD600” value (polymyxin B 1 µg/mL) came out at 0.713.

`O=C(NC1CCCc2nc(-c3cccnc3)ncc21)c1noc2c1CCCC2` (stereo unspecified): the “bacterial growth OD600” value (polymyxin B 0.75 µg/mL) amounted to 0.837. In the case of `COCCNC(=O)c1ccc(OC2CCN(C3CCOCC3)CC2)c(Cl)c1`, the “bacterial growth OD600” value (polymyxin B 1 µg/mL) amounted to 0.908.

Turning to `COc1ccc(Cc2noc(-c3ccc(N(C)Cc4nonc4C)nc3)n2)cc1`, the “bacterial growth OD600” value (polymyxin B 1 µg/mL) worked out at 0.777. On the same count and under the same terms, then `COC(=O)[C@@H]1CCCN1C(=O)c1cc(Cn2c(C)nc3ccccc32)on1`, with 1.04. Regarding `CCC1CN(CCC(=O)NCc2ccc3c(c2)OCO3)Cc2cc(OC)ccc2O1` (stereo unspecified), the “bacterial growth OD600” value (polymyxin B 0.75 µg/mL) is 0.926. Same read-out and setting: the figure for `Cc1ccc(-c2ccnc(-n3ncc(C(=O)NCC4(N5CCCCC5)CCCC4)c3C3CC3)n2)o1` is 0.789; for `Cn1c(CN2CCOc3ccc(C4=Cc5ccccc5CC4)cc3C2)nc2ccccc21` it is 0.093.

For `CCOC(=O)N1CCN(C2CCCN(Cc3cc(C)ccc3-n3cccn3)C2)CC1` (stereo unspecified), the “bacterial growth OD600” value (polymyxin B 1 µg/mL) worked out at 1.04. In the case of `CCOc1ccc2nc(N3CCC(NCc4ccc(C)o4)CC3)nc(C)c2c1`, the “bacterial growth OD600” value (polymyxin B 0.75 µg/mL) was found to be 0.705. Same read-out and setting: then `COc1ccc(/C=C/C(=O)NCCN2Cc3ccccc3OC(c3ccsc3)C2)cc1OC` (stereo unspecified), with 0.009. Consider `COC(=O)CC1C(=O)NCCN1C(=O)c1csc2nc(-c3ccccc3)cn12` (stereo unspecified), for which, where the note is “polymyxin B 1 µg/mL”, the “bacterial growth OD600” value turned out to be 1.1. On the same count and under the same terms, then `CC(Cn1cncn1)NC(=O)c1ccc2oc(CCc3ccccc3)nc2c1` (stereo unspecified), with 0.822; and `Cc1oc(-c2ccc(C(F)(F)F)cc2)nc1CN(C)C(C)c1ccon1` (stereo unspecified), with 0.527. With `c1ccc2c(NC3CCCCC3)nc(CN3CCCC3c3nccs3)nc2c1` (stereo unspecified), the “bacterial growth OD600” value (polymyxin B 0.75 µg/mL) came to 0.883. The same measure, in the same setting: then `CC(=O)N1CCN(C(=O)CC2(c3cccc(F)c3)CC(=O)N(C3CCCC3)C2=O)CC1` (stereo unspecified), with 0.828; and `CC(=O)N1CCN(C(=O)c2ccc(OC3CCN(S(C)(=O)=O)CC3)c(Cl)c2)CC1`, with 0.844.
